Numbering of substitutions follows the chain as printed. These are yes or no findings as the source states them, for the method shown. Some entries that bind do so weakly or less than the wild type.

For assay [1], the target named is T1, Fz8-CRD (UniProt Q9H461).
T1 sequence (fluorescence-conjugated, looked up): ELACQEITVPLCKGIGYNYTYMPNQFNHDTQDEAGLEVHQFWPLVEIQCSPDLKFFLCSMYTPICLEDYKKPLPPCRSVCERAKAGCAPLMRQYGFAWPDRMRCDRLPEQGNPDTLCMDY
Description: yeast surface display, fluorescence-conjugated Fz8-CRD.

In assay [2] the target is T1, Fz8-CRD. Description: yeast surface titrations (approximate Kd's, not given).

B1: Fz27-B12 (designed binder)
chain: MGVSFSEVMGKQKDEQAREQLKEGMIKIEEQGKKLSETRTQEELQKYVAAVATFALQAGFLGPNLEERRGFNRRGKEEIGKISGEVYLKLLDLKKAVRAKEKKGLDILNMVGEIKGTLERVYA
For the molecule B1, the binding result in assay [1] and in assay [2] was “binds” in each case.

B2: Fz27 (designed binder)
chain: B1 chain with I26K, V48A, T53A, L56A, Q57A, P63K, L88K, T117L, V121I
For B2, the binding result in assay [1] is on record as “binds”.

For the origin of these results see patent US20210403578A1.
